The values that follow come from patent publication US20220340906.

Chains of the proteins cited; added tags and fusions are not shown. Residues count along the entry.
UniProt Q99JW5, 24-315: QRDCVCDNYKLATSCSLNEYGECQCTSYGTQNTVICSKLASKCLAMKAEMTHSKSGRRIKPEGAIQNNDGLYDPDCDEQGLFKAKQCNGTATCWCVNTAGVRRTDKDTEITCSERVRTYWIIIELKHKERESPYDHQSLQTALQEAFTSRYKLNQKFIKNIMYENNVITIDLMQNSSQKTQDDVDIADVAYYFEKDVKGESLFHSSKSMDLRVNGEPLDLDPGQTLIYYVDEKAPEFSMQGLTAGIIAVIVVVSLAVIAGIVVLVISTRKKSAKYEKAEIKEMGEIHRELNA
UniProt P16422, 24-314: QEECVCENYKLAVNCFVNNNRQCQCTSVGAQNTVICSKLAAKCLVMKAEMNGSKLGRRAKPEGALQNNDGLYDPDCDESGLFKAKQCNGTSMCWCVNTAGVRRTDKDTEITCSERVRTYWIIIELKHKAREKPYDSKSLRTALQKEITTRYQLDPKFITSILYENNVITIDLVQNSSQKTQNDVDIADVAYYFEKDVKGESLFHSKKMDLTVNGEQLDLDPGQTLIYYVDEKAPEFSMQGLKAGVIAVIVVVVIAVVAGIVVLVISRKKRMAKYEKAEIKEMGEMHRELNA

One data set has as its target EpCAM (Mus musculus) (UniProt Q99JW5). The data set can be described thus: flow cytometry. Particulars: 2'-F pyrimidines (all C and U; modified form printed as SEQ 67); binding/internalization Kd on mouse BC cells, one-site hyperbola fit; Opti-MEM, 5 mM MgCl2, tRNA and salmon sperm DNA; protein on the cell surface; label: 5'-Cy3.
Another data set deals with EpCAM (Homo sapiens) (UniProt P16422). Kind of data set: flow cytometry. Particulars: 2'-F pyrimidines (all C and U; modified form printed as SEQ 67); binding/internalization Kd on human BC cells, one-site hyperbola fit; Opti-MEM, 5 mM MgCl2, tRNA and salmon sperm DNA; protein on the cell surface; protein details: endogenous on human breast cancer cell lines; label: 5'-Cy3.

At least one result comes from cells or an extract, where the contact may be indirect.

Consider “GCGACUGGUUACCCGGUCG [EpCAM aptamer (19 nt)]”, for which the binding result in the data set with EpCAM (Mus musculus) and in the data set with EpCAM (Homo sapiens) was “binds” each time.
